Assay results: patent US11234970B2, “Parasitic pest control agents comprising pyridone compounds as active ingredients and methods for using the same” (MITSUI CHEMICALS AGRO, INC., priority 2017, dated 2022)
Some of these results come from one statement about several compounds together.

What was measured:
[1] = system: two-spotted spider mite; assay: Two-spotted spider mite egg and hatched larva mortality test on leaf disk (Test Example 3); type: in vivo; conditions: 500 ppm solution sprayed at 1 ml per Petri dish; after 9 days; unhatched larva counted as dead
[2] = system: second-stage larva of southern root-knot nematode; assay: Southern root-knot nematode root knot test on cucumber seedlings (Test Example 2); type: in vivo; conditions: 20 ppm solution, 2 ml/plant at bases of cucumber seedlings; root knots counted 7 days after treatment

Row | Compound | mortality rate of the eggs and hatched larva [1] [%] | ratio of the number of root knots of the treated group to that of the untreated group [2]
1 | O=c1ccc(-c2ccc(Cl)cc2F)c(-c2c(F)cccc2F)n1CC(F)F [Compound 428] | ≥ 70 | ≤ 30
2 | CCn1c(-c2c(F)cc(OC)cc2F)c(-c2ccccc2Cl)ccc1=O [Compound 430] | ≥ 70 | 
3 | O=c1c(Cl)cc(-c2cc(Cl)cc(Cl)c2Cl)c(-c2c(F)cccc2F)n1CC(F)F [Compound 455] | ≥ 70 | 
4 | Cn1c(-c2c(F)cccc2F)c(-c2cc(F)ccc2Cl)cc(F)c1=O [Compound 513] | ≥ 70 | 
5 | CCn1c(-c2c(F)cc(F)cc2F)c(-c2ccc(F)cc2Cl)cc(Cl)c1=O [Compound 577] | ≥ 70 | ≤ 30
6 | CCn1c(-c2c(F)cc(F)cc2F)c(-c2cc(F)cc(F)c2Cl)ccc1=O [Compound 584] | ≥ 70 | ≤ 30
7 | CCn1c(-c2c(F)cc(F)cc2F)c(-c2cc(F)cc(F)c2Cl)cc(Cl)c1=O [Compound 585] | ≥ 70 | ≤ 30
8 | Cn1c(-c2c(F)cc(F)cc2F)c(-c2cc(F)cc(F)c2Cl)cc(Cl)c1=O [Compound 587] | ≥ 70 | 
9 | CCn1c(-c2c(F)cc(OC)cc2F)c(-c2ccc(F)cc2Cl)cc(Cl)c1=O [Compound 593] | ≥ 70 | 
10 | O=c1ccc(-c2cc(F)cc(F)c2Cl)c(-c2c(F)cc(F)cc2F)n1CC(F)F [Compound 607] | ≥ 70 | 
11 | CCN1C(=O)CCC(c2ccc(Br)cc2Cl)=C1c1c(F)cc(F)cc1F [Compound 622] | ≥ 70 | 
12 | CCn1c(-c2c(F)cc(F)cc2F)c(-c2ccc(Br)cc2Cl)ccc1=O [Compound 624] | ≥ 70 | 
13 | CCn1c(-c2c(F)cc(F)cc2F)c(-c2cc(F)cc(F)c2Cl)ccc1=S [Compound 649] | ≥ 70 | ≤ 30
14 | CCn1c(-c2c(F)cc(OC)cc2F)c(-c2ccccc2Br)cc(Cl)c1=O [Compound 668] | ≥ 70 | 
15 | COc1cc(F)c(-c2c(-c3cc(F)cc(F)c3Cl)cc(Cl)c(=O)n2CC(F)F)c(F)c1 [Compound 679] | ≥ 70 | 
16 | CCn1c(-c2c(F)cc(F)cc2F)c(-c2ccccc2Cl)cc(Br)c1=O [Compound 683] | ≥ 70 | 
17 | CCn1c(-c2c(F)cc(F)cc2F)c(-c2cc(F)cc(F)c2Cl)cc(C)c1=O [Compound 689] | ≥ 70 | 
18 | CCn1c(-c2c(F)cc(F)cc2F)c(-c2ccccc2Cl)ccc1=S [Compound 715] | ≥ 70 | 
19 | COc1cc(F)c(-c2c(-c3ccccc3Cl)cc(C)c(=O)n2C)c(F)c1 [Compound 733] | ≥ 70 | 
20 | CCn1c(-c2c(F)cc(F)cc2F)c(-c2cc(F)cc(F)c2Br)ccc1=O [Compound 812] | ≥ 70 | ≤ 30
21 | CCn1c(-c2c(F)cc(F)cc2F)c(-c2cc(F)cc(F)c2Br)cc(Cl)c1=O [Compound 813] | ≥ 70 | ≤ 30
22 | CCn1c(-c2c(F)cc(F)cc2F)c(-c2cc(F)cc(F)c2Br)cc(Br)c1=O [Compound 814] | ≥ 70 | ≤ 30
23 | Cn1c(-c2c(F)cc(F)cc2F)c(-c2cc(F)cc(F)c2Br)ccc1=O [Compound 815] | ≥ 70 | ≤ 30
